Data as given in PubChem BioAssay AID504771 (Drosophila RNAi Screening Center, 2011).
This is not the whole library: the list holds selected reagents. 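All genes were primary candidates; inactive means validation failed, not no effect; aggregate scores behind calls are not deposited.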 Entries without a mark were called inactive. Names joined by + are all predicted targets of the reagent.

Assay: 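Fly cell regulators of aggregate formation by polyglutamine huntingtin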 (follow-up of hits)
Cell system: Drosophila S2 cells with copper-inducible mutant huntingtin exon 1 (46 glutamines)-eGFP
Reagents: long dsRNA against Drosophila genes, 250 ng dsRNA per well
Timing: 3 days of knock-down, then 2 days of copper induction before fixing
Treatment: copper sulfate at 400 µM to switch on Htt-Q46-eGFP expression
Read-out: 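Per-well count, size and brightness of GFP aggregates from automated images, set against plate mean and SD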
Active means: 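Primary hit when aggregate count, size or brightness differed from plate mean by over 2 SD; called active only after clearing every validation step (off-target, repeat, second dsRNA, promoter counter-screen)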
Meaning of the calls: active = confirmed modifier; inactive = primary candidate not confirmed

With knock-down of SmD2 [DRSC12536] the results were aggregation phenotype knock-down lowers aggregates.
sxc [DRSC04911] showed aggregation phenotype knock-down lowers aggregates.
Spt20 [DRSC10280] showed aggregation phenotype knock-down raises aggregates.
Knock-down of mRpS34 [DRSC09918] resulted in: aggregation phenotype knock-down lowers aggregates.
Against CG1542 [DRSC15035] the deposit lists aggregation phenotype knock-down lowers aggregates.
Silencing of Hsc70-3 [DRSC20253] resulted in: aggregation phenotype knock-down lowers aggregates (active).
For gish [DRSC16154], the values are aggregation phenotype knock-down raises aggregates.
With knock-down of Wdr33 [DRSC12162], the screen gave aggregation phenotype knock-down lowers aggregates.
Against CG13243 [DRSC01920] the deposit lists aggregation phenotype knock-down lowers aggregates.
Tango4 [DRSC19786] gave aggregation phenotype knock-down lowers aggregates (active).
With knock-down of Rpn12 [DRSC11275] the results were aggregation phenotype knock-down lowers aggregates.
Knock-down of Cdk7 [DRSC23327] came out at: aggregation phenotype knock-down lowers aggregates.
Gar1 [DRSC04441] scored aggregation phenotype knock-down lowers aggregates.
After knock-down of RpL10 [DRSC11947], the screen gave aggregation phenotype knock-down lowers aggregates.
Silencing of IntS2 [DRSC20094] came out at: aggregation phenotype knock-down raises aggregates (active).
RpL4 [DRSC16833] showed aggregation phenotype knock-down lowers aggregates.
After knock-down of CycT [DRSC11124] the results were aggregation phenotype knock-down lowers aggregates.
With knock-down of CycT [DRSC23304], the screen gave aggregation phenotype knock-down lowers aggregates.
Against CG10660 [DRSC09769] the deposit lists aggregation phenotype knock-down lowers aggregates.
eIF3e [DRSC11199] gave aggregation phenotype knock-down lowers aggregates.
Depletion of spt4 [DRSC07696] came out at: aggregation phenotype knock-down raises aggregates.
With knock-down of MED31 [DRSC12142], the screen gave aggregation phenotype knock-down lowers aggregates.
After knock-down of Tao [DRSC19573] the results were aggregation phenotype knock-down may raise aggregates (active).
CG9667 [DRSC16535] scored aggregation phenotype knock-down lowers aggregates (active).
Depletion of mRpS6 [DRSC08470] gave: aggregation phenotype knock-down lowers aggregates.
With knock-down of MESR4 [DRSC06901], the screen gave aggregation phenotype knock-down raises aggregates (active).
Silencing of mRpS33 [DRSC14239] came out at: aggregation phenotype knock-down lowers aggregates.
With knock-down of snRNP-U1-C [DRSC15804], the screen gave aggregation phenotype knock-down lowers aggregates.
Against Atf-2 [DRSC04413] the deposit lists aggregation phenotype knock-down lowers aggregates.
After knock-down of Idh3a [DRSC19446], the record shows aggregation phenotype knock-down raises aggregates.
RpLP1 [DRSC22145] gave aggregation phenotype knock-down lowers aggregates.
After knock-down of vers [DRSC10715] the results were aggregation phenotype knock-down raises aggregates.
Depletion of vers [DRSC23232] resulted in: aggregation phenotype knock-down raises aggregates.
ND-42 [DRSC16754] showed aggregation phenotype knock-down lowers aggregates.
Knock-down of Tango6 [DRSC02671] gave: aggregation phenotype knock-down lowers aggregates (active).
After knock-down of CG18273 [DRSC18505], the record shows aggregation phenotype knock-down lowers aggregates.
Depletion of Ino80 [DRSC15333] gave: aggregation phenotype knock-down raises aggregates.
Depletion of alphaSnap [DRSC11285] resulted in: aggregation phenotype knock-down lowers aggregates.
For His2B:CG33870 + His2B:CG33868 + His2B:CG33882 + 20 more [DRSC21265] the deposit lists aggregation phenotype knock-down lowers aggregates.
Against Sin3A [DRSC07552], the values are aggregation phenotype knock-down raises aggregates (active).
U2A [DRSC06445] scored aggregation phenotype knock-down lowers aggregates.
With knock-down of CG14210 + Pstk + Tim9b [DRSC19566] the results were aggregation phenotype knock-down lowers aggregates.
With knock-down of RpS8 [DRSC16318], the record shows aggregation phenotype knock-down lowers aggregates.
Silencing of Rab11 [DRSC16809] resulted in: aggregation phenotype knock-down lowers aggregates (active).
r-l [DRSC17042] showed aggregation phenotype knock-down lowers aggregates.
With knock-down of r-l [DRSC22784], the record shows aggregation phenotype knock-down lowers aggregates.
Against Cpsf73 [DRSC16291], the values are aggregation phenotype knock-down lowers aggregates.
